Reference: PubChem BioAssay AID1508597 (Cure First, 2020)
Assay: 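Knock-downs altering ovarian cancer cell survival with or without PARP inhibitor rucaparib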 (primary screen). Cells: human ovarian carcinoma lines grown from tumours: OCI-P5x (papillary serous) and OCI-C5x (clear cell). Knock-down reagent: siRNA pool against human genes, 1.25 pmol siRNA per well. Time to read-out: 72 h or 96 h, depending on the cell culture. Challenge: rucaparib 20 µM (about IC30) or vehicle, present until read-out. Read-out: 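Luminescent ATP-based viability assay read 72 or 96 h after transfection, depending on culture, given as normalised percent viability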. Scale: viability, normalised: higher = more viable cells remaining. Hit rule: 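Active when normalised viability falls below 80 percent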. Meaning of the calls: active = viability under 80%; inactive = viability 80% or more.
The deposit covers about 2,100 reagents; this is a part drawn at random. 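Calls flag viability under 80% in either arm, not effects specific to rucaparib; the reference for percent is not stated.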 Unmarked entries are inactive. Reagent sequences are not shown. Not given: the 100% reference.

viability, normalised (%)	gene	rucaparib or vehicle	cell line	technical replicate
34.1 (active)	CLDN16 (claudin 16)	Rucaparib	OCI-C5x (clear cell)	1
40.6 (active)	CLDN16 (claudin 16)	Rucaparib	OCI-C5x (clear cell)	2
24.7 (active)	CLDN16 (claudin 16)	Rucaparib	OCI-C5x (clear cell)	3
52 (active)	CLDN16 (claudin 16)	Rucaparib	OCI-P5x (serous)	1
42.7 (active)	CLDN16 (claudin 16)	Rucaparib	OCI-P5x (serous)	2
52.9 (active)	CLDN16 (claudin 16)	Rucaparib	OCI-P5x (serous)	3
25.9 (active)	CLDN16 (claudin 16)	Vehicle	OCI-C5x (clear cell)	1
31.3 (active)	CLDN16 (claudin 16)	Vehicle	OCI-C5x (clear cell)	2
32.5 (active)	CLDN16 (claudin 16)	Vehicle	OCI-C5x (clear cell)	3
59.3 (active)	CLDN16 (claudin 16)	Vehicle	OCI-P5x (serous)	1
60 (active)	CLDN16 (claudin 16)	Vehicle	OCI-P5x (serous)	2
64 (active)	CLDN16 (claudin 16)	Vehicle	OCI-P5x (serous)	3
60.9 (active)	SMPD4 (sphingomyelin phosphodiesterase 4)	Rucaparib	OCI-C5x (clear cell)	1
71.2 (active)	SMPD4 (sphingomyelin phosphodiesterase 4)	Rucaparib	OCI-C5x (clear cell)	2
56.5 (active)	SMPD4 (sphingomyelin phosphodiesterase 4)	Rucaparib	OCI-C5x (clear cell)	3
50.4 (active)	SMPD4 (sphingomyelin phosphodiesterase 4)	Rucaparib	OCI-P5x (serous)	1
62.6 (active)	SMPD4 (sphingomyelin phosphodiesterase 4)	Rucaparib	OCI-P5x (serous)	2
58.4 (active)	SMPD4 (sphingomyelin phosphodiesterase 4)	Rucaparib	OCI-P5x (serous)	3
59.9 (active)	SMPD4 (sphingomyelin phosphodiesterase 4)	Vehicle	OCI-C5x (clear cell)	1
61.1 (active)	SMPD4 (sphingomyelin phosphodiesterase 4)	Vehicle	OCI-C5x (clear cell)	2
59.4 (active)	SMPD4 (sphingomyelin phosphodiesterase 4)	Vehicle	OCI-C5x (clear cell)	3
64.5 (active)	SMPD4 (sphingomyelin phosphodiesterase 4)	Vehicle	OCI-P5x (serous)	1
62 (active)	SMPD4 (sphingomyelin phosphodiesterase 4)	Vehicle	OCI-P5x (serous)	2
70.3 (active)	SMPD4 (sphingomyelin phosphodiesterase 4)	Vehicle	OCI-P5x (serous)	3
54.6 (active)	MLKL (mixed lineage kinase domain like pseudokinase)	Rucaparib	OCI-C5x (clear cell)	1
79.6 (active)	MLKL (mixed lineage kinase domain like pseudokinase)	Rucaparib	OCI-C5x (clear cell)	2
75.4 (active)	MLKL (mixed lineage kinase domain like pseudokinase)	Rucaparib	OCI-C5x (clear cell)	3
129	MLKL (mixed lineage kinase domain like pseudokinase)	Rucaparib	OCI-P5x (serous)	1
133	MLKL (mixed lineage kinase domain like pseudokinase)	Rucaparib	OCI-P5x (serous)	2
98.8	MLKL (mixed lineage kinase domain like pseudokinase)	Rucaparib	OCI-P5x (serous)	3
60.9 (active)	MLKL (mixed lineage kinase domain like pseudokinase)	Vehicle	OCI-C5x (clear cell)	1
78.3 (active)	MLKL (mixed lineage kinase domain like pseudokinase)	Vehicle	OCI-C5x (clear cell)	2
72.8 (active)	MLKL (mixed lineage kinase domain like pseudokinase)	Vehicle	OCI-C5x (clear cell)	3
80.5	MLKL (mixed lineage kinase domain like pseudokinase)	Vehicle	OCI-P5x (serous)	1
97.9	MLKL (mixed lineage kinase domain like pseudokinase)	Vehicle	OCI-P5x (serous)	2
104	MLKL (mixed lineage kinase domain like pseudokinase)	Vehicle	OCI-P5x (serous)	3

Continued, starting with the last 6 of the part before.
viability, normalised (%)	gene	rucaparib or vehicle	cell line	technical replicate
60.9 (active)	MLKL (mixed lineage kinase domain like pseudokinase)	Vehicle	OCI-C5x (clear cell)	1
78.3 (active)	MLKL (mixed lineage kinase domain like pseudokinase)	Vehicle	OCI-C5x (clear cell)	2
72.8 (active)	MLKL (mixed lineage kinase domain like pseudokinase)	Vehicle	OCI-C5x (clear cell)	3
80.5	MLKL (mixed lineage kinase domain like pseudokinase)	Vehicle	OCI-P5x (serous)	1
97.9	MLKL (mixed lineage kinase domain like pseudokinase)	Vehicle	OCI-P5x (serous)	2
104	MLKL (mixed lineage kinase domain like pseudokinase)	Vehicle	OCI-P5x (serous)	3
57.4 (active)	FANCE (FA complementation group E)	Rucaparib	OCI-C5x (clear cell)	1
51.9 (active)	FANCE (FA complementation group E)	Rucaparib	OCI-C5x (clear cell)	2
43.7 (active)	FANCE (FA complementation group E)	Rucaparib	OCI-C5x (clear cell)	3
68.6 (active)	FANCE (FA complementation group E)	Rucaparib	OCI-P5x (serous)	1
78.7 (active)	FANCE (FA complementation group E)	Rucaparib	OCI-P5x (serous)	2
70 (active)	FANCE (FA complementation group E)	Rucaparib	OCI-P5x (serous)	3
56.2 (active)	FANCE (FA complementation group E)	Vehicle	OCI-C5x (clear cell)	1
46.2 (active)	FANCE (FA complementation group E)	Vehicle	OCI-C5x (clear cell)	2
49 (active)	FANCE (FA complementation group E)	Vehicle	OCI-C5x (clear cell)	3
71.9 (active)	FANCE (FA complementation group E)	Vehicle	OCI-P5x (serous)	1
75.6 (active)	FANCE (FA complementation group E)	Vehicle	OCI-P5x (serous)	2
79.9 (active)	FANCE (FA complementation group E)	Vehicle	OCI-P5x (serous)	3
40 (active)	GON4L (gon-4 like)	Rucaparib	OCI-C5x (clear cell)	1
39.1 (active)	GON4L (gon-4 like)	Rucaparib	OCI-C5x (clear cell)	2
42.9 (active)	GON4L (gon-4 like)	Rucaparib	OCI-C5x (clear cell)	3
46.4 (active)	GON4L (gon-4 like)	Rucaparib	OCI-P5x (serous)	1
46.9 (active)	GON4L (gon-4 like)	Rucaparib	OCI-P5x (serous)	2
51.4 (active)	GON4L (gon-4 like)	Rucaparib	OCI-P5x (serous)	3
34.7 (active)	GON4L (gon-4 like)	Vehicle	OCI-C5x (clear cell)	1
38.6 (active)	GON4L (gon-4 like)	Vehicle	OCI-C5x (clear cell)	2
44.9 (active)	GON4L (gon-4 like)	Vehicle	OCI-C5x (clear cell)	3
56.1 (active)	GON4L (gon-4 like)	Vehicle	OCI-P5x (serous)	1
60.7 (active)	GON4L (gon-4 like)	Vehicle	OCI-P5x (serous)	2
52 (active)	GON4L (gon-4 like)	Vehicle	OCI-P5x (serous)	3
